{"source": "the supplement of paper PMC9744312", "note": "Counter-ions that a name gives are not always drawn. The list shows a part of the results. Single values of this set are uncertain."}
{"tested_on": "Peyronie's disease tunica albuginea primary fibroblasts", "assay": "inhibition of TGF-beta1-induced alpha-SMA expression (myofibroblast transformation), relative to TGF-beta1-only and untreated controls; higher = stronger inhibition of myofibroblast transformation", "conditions": "10 µM; TGF-beta1 10 ng/mL; 72 h", "units": {"inhibition of TGF-beta1-induced alpha-SMA expression": "%"}}
{"smiles": "CCN(CC)CCNC(=O)c1c(C)[nH]c(/C=C2\\C(=O)Nc3ccc(F)cc32)c1C", "note": "[Sunitinib Malate]", "inhibition of TGF-beta1-induced alpha-SMA expression": "> 100"}
{"smiles": "CCN(CC)CCNC(=O)c1c(C)[nH]c(/C=C2\\C(=O)Nc3ccc(F)cc32)c1C", "note": "[Sunitinib]", "inhibition of TGF-beta1-induced alpha-SMA expression": 68.3}
{"smiles": "COc1ccc(/C=C/C(=O)Nc2ccccc2C(=O)O)cc1OC", "note": "[Tranilast]", "inhibition of TGF-beta1-induced alpha-SMA expression": 38.2}
{"smiles": "Oc1ccc(/C=C/c2cc(O)cc(O)c2)cc1", "note": "[Resveratrol]", "inhibition of TGF-beta1-induced alpha-SMA expression": 13.6}
{"smiles": "CCOC(=O)C1=C(COCCN)NC(C)=C(C(=O)OC)C1c1ccccc1Cl", "note": "(stereo unspecified) [Amlodipine Besylate]", "inhibition of TGF-beta1-induced alpha-SMA expression": 23.2}
{"smiles": "CCOC(=O)C1=C(COCCN)NC(C)=C(C(=O)OC)C1c1ccccc1Cl", "note": "(stereo unspecified) [Amlodipine]", "inhibition of TGF-beta1-induced alpha-SMA expression": 22.1}
{"smiles": "Cc1cc(/C=C/C#N)cc(C)c1Nc1ccnc(Nc2ccc(C#N)cc2)n1", "note": "[Rilpivirine]", "inhibition of TGF-beta1-induced alpha-SMA expression": 37.2}
{"smiles": "CCOc1cc2ncc(C#N)c(Nc3ccc(F)c(Cl)c3)c2cc1NC(=O)/C=C/CN(C)C", "note": "[Pelitinib (EKB-569)]", "inhibition of TGF-beta1-induced alpha-SMA expression": 99.7}
{"smiles": "Oc1c(Cl)cc(Cl)c(Cl)c1Cc1c(O)c(Cl)cc(Cl)c1Cl", "note": "[Hexachlorophene]", "inhibition of TGF-beta1-induced alpha-SMA expression": "> 100"}
{"smiles": "OC(CNCC(O)C1CCc2cc(F)ccc2O1)C1CCc2cc(F)ccc2O1", "note": "(stereo unspecified) [Nebivolol HCl]", "inhibition of TGF-beta1-induced alpha-SMA expression": 31.8}
{"smiles": "CC(=O)NS(=O)(=O)c1ccc(NC(=O)c2ccccc2C(=O)O)cc1", "note": "[Phthalylsulfacetamide]", "inhibition of TGF-beta1-induced alpha-SMA expression": -4.01}
{"smiles": "NC(=O)c1cccc2cn(-c3ccc([C@@H]4CCCNC4)cc3)nc12", "note": "[Niraparib (MK-4827) tosylate]", "inhibition of TGF-beta1-induced alpha-SMA expression": 40.7}
{"smiles": "NC(=O)c1cccc2cn(-c3ccc([C@@H]4CCCNC4)cc3)nc12", "note": "[Niraparib (MK-4827)]", "inhibition of TGF-beta1-induced alpha-SMA expression": 70.7}
{"smiles": "CC[C@H](C)[C@H](N)C1=N[C@H](C(=O)N[C@@H](CC(C)C)C(=O)N[C@H](CCC(=O)O)C(=O)N[C@H](C(=O)N[C@H]2CCCCNC(=O)[C@H](CC(N)=O)NC(=O)[C@@H](CC(=O)O)NC(=O)[C@H](Cc3cnc[nH]3)NC(=O)[C@@H](Cc3ccccc3)NC(=O)[C@H]([C@@H](C)CC)NC(=O)[C@@H](CCCN)NC2=O)[C@@H](C)CC)CS1", "note": "[Bacitracin]", "inhibition of TGF-beta1-induced alpha-SMA expression": 2.79}
{"smiles": "CN1CCN(CCCN2c3ccccc3Sc3ccc(C(F)(F)F)cc32)CC1", "note": "[Trifluoperazine 2HCl]", "inhibition of TGF-beta1-induced alpha-SMA expression": "> 100"}
{"smiles": "CC(S)C(=O)NCC(=O)O", "note": "(stereo unspecified) [Tiopronin]", "inhibition of TGF-beta1-induced alpha-SMA expression": -14.9}
{"smiles": "COC[C@H]1C[C@@H](c2nc(-c3ccc4c(c3)COc3cc5c(ccc6nc([C@@H]7CC[C@H](C)N7C(=O)[C@@H](NC(=O)OC)C(C)C)[nH]c65)cc3-4)c[nH]2)N(C(=O)[C@H](NC(=O)OC)c2ccccc2)C1", "note": "[Velpatasvir]", "inhibition of TGF-beta1-induced alpha-SMA expression": 5.07}
{"smiles": "CNC[C@H](O)c1ccc(O)c(O)c1", "note": "[Epinephrine bitartrate]", "inhibition of TGF-beta1-induced alpha-SMA expression": -4.8}
{"smiles": "CNC[C@H](O)c1ccc(O)c(O)c1", "note": "[Epinephrine HCl]", "inhibition of TGF-beta1-induced alpha-SMA expression": 38.2}
{"smiles": "Nc1ccn([C@H]2CC[C@@H](CO)O2)c(=O)n1", "note": "[Zalcitabine]", "inhibition of TGF-beta1-induced alpha-SMA expression": 2.78}
{"smiles": "C=CCNC(N)=S", "note": "[Allylthiourea]", "inhibition of TGF-beta1-induced alpha-SMA expression": 24}
{"smiles": "CN(C)CCOC(C)(c1ccccc1)c1ccccn1", "note": "(stereo unspecified) [Doxylamine Succinate]", "inhibition of TGF-beta1-induced alpha-SMA expression": 10.9}
{"smiles": "C[C@@H](O)[C@H]1C(=O)N2C(C(=O)O)=C(S[C@@H]3CN[C@H](CNS(N)(=O)=O)C3)[C@H](C)[C@H]12", "note": "[Doripenem Hydrate]", "inhibition of TGF-beta1-induced alpha-SMA expression": 48.3}
{"smiles": "C[C@@H](O)[C@H]1C(=O)N2C(C(=O)O)=C(S[C@@H]3CN[C@H](CNS(N)(=O)=O)C3)[C@H](C)[C@H]12", "note": "[Doripenem]", "inhibition of TGF-beta1-induced alpha-SMA expression": 32.4}
{"smiles": "Oc1c(I)cc(Cl)c2cccnc12", "note": "[Clioquinol]", "inhibition of TGF-beta1-induced alpha-SMA expression": -37.1}
{"smiles": "CC(C)(C#N)c1cc(Cn2cncn2)cc(C(C)(C)C#N)c1", "note": "[Anastrozole]", "inhibition of TGF-beta1-induced alpha-SMA expression": -46}
{"smiles": "COc1cc2nccc(Oc3ccc(NC(=O)Nc4cc(C)on4)c(Cl)c3)c2cc1OC", "note": "[Tivozanib (AV-951)]", "inhibition of TGF-beta1-induced alpha-SMA expression": -116}
{"smiles": "C(=C\\c1ccccc1)/CN1CCN(C(c2ccccc2)c2ccccc2)CC1", "note": "[Cinnarizine]", "inhibition of TGF-beta1-induced alpha-SMA expression": -23.8}
{"smiles": "C[C@]1(O)C[C@@H](c2nc(-c3ccc4ccc(-c5ccccc5)nc4c3)c3c(N)nccn32)C1", "note": "[Linsitinib (OSI-906)]", "inhibition of TGF-beta1-induced alpha-SMA expression": 1.46}
{"smiles": "O=C([O-])c1ccccc1.[Na+]", "note": "[Sodium benzoate]", "inhibition of TGF-beta1-induced alpha-SMA expression": 10.4}
{"smiles": "O=C(C1CCCCC1)N1CC(=O)N2CCc3ccccc3C2C1", "note": "(stereo unspecified) [Praziquantel]", "inhibition of TGF-beta1-induced alpha-SMA expression": 10.8}
{"smiles": "C[C@@H]1CCO[C@H]2Cn3cc(C(=O)NCc4ccc(F)cc4F)c(=O)c(O)c3C(=O)N12", "inhibition of TGF-beta1-induced alpha-SMA expression": 9.46}
{"smiles": "CO[C@H]1/C=C/O[C@@]2(C)Oc3c(C)c(O)c4c(O)c(cc(O)c4c3C2=O)NC(=O)/C(C)=C\\C=C\\[C@H](C)[C@H](O)[C@@H](C)[C@@H](O)[C@@H](C)[C@H](OC(C)=O)[C@@H]1C", "note": "[Rifamycin sodium salt]", "inhibition of TGF-beta1-induced alpha-SMA expression": 27.4}
{"smiles": "CCC/N=C1\\S/C(=C\\c2ccc(OC[C@H](O)CO)c(Cl)c2)C(=O)N1c1ccccc1C", "note": "[Ponesimod]", "inhibition of TGF-beta1-induced alpha-SMA expression": 35.9}
{"smiles": "CC(C)C[C@H](NC(=O)[C@@H](NC(=O)c1cccc(-c2ccccc2)n1)[C@@H](C)O)B(O)O", "inhibition of TGF-beta1-induced alpha-SMA expression": "> 100"}
{"smiles": "COc1ccc2c(c1)c(CC(=O)O)c(C)n2C(=O)c1ccc(Cl)cc1", "note": "[Indometacin Sodium]", "inhibition of TGF-beta1-induced alpha-SMA expression": 26.7}
{"smiles": "COc1ccc2c(c1)c(CC(=O)O)c(C)n2C(=O)c1ccc(Cl)cc1", "note": "[Indomethacin]", "inhibition of TGF-beta1-induced alpha-SMA expression": 10.6}
{"smiles": "Nc1nc2ccc(OC(F)(F)F)cc2s1", "note": "[Riluzole]", "inhibition of TGF-beta1-induced alpha-SMA expression": -4}
{"smiles": "CN1CCC(=C2c3ccccc3CCc3cccnc32)CC1", "note": "[Azatadine dimaleate]", "inhibition of TGF-beta1-induced alpha-SMA expression": 38}
{"smiles": "CC(C)(C)NCC(O)COc1cccc2c1CCC(=O)N2", "note": "(stereo unspecified) [Carteolol HCl]", "inhibition of TGF-beta1-induced alpha-SMA expression": -13.2}
{"smiles": "CNC(=O)c1cc(Oc2ccc(NC(=O)Nc3ccc(Cl)c(C(F)(F)F)c3)c(F)c2)ccn1", "note": "[Regorafenib (BAY 73-4506)]", "inhibition of TGF-beta1-induced alpha-SMA expression": 34.1}
{"smiles": "CNC(=O)c1cc(Oc2ccc(NC(=O)Nc3ccc(Cl)c(C(F)(F)F)c3)c(F)c2)ccn1", "note": "[Regorafenib Monohydrate]", "inhibition of TGF-beta1-induced alpha-SMA expression": 90.8}
{"smiles": "CC(=O)NCCCS(=O)(=O)O", "note": "[Acamprosate Calcium]", "inhibition of TGF-beta1-induced alpha-SMA expression": 24.9}
{"smiles": "O=C(O)c1cc(/N=N/c2ccc(O)c(C(=O)O)c2)ccc1O", "note": "[Olsalazine Sodium]", "inhibition of TGF-beta1-induced alpha-SMA expression": -0.725}
{"smiles": "COCCCN1CCC(NC(=O)c2cc(Cl)c(N)c3c2OCC3)CC1", "note": "[Prucalopride Succinate]", "inhibition of TGF-beta1-induced alpha-SMA expression": 63}
{"smiles": "COCCCN1CCC(NC(=O)c2cc(Cl)c(N)c3c2OCC3)CC1", "note": "[Prucalopride]", "inhibition of TGF-beta1-induced alpha-SMA expression": 5.25}
